Data as given in patent publication US20230174951A1, “PHENOL-RICH GRAPES” (THE STATE OF ISRAEL, MINISTRY OF AGRICULTURE & RURAL …, priority 2020, published 2023).

Tested on: V. vinifera cv. Gamay Red cell culture
Test: Phe feeding of control, AroG* and AroG* + FLS-22 lines, metabolite levels
Type: cell-based, Vitis vinifera
Conditions: 5 mM Phe feeding, 9 days, compared to non-fed control, mean ± SE, n = 3; for Metabolite level, AroG* + FLS line: line 22

Row | Compound | Metabolite level, AroG* line [fold change] | Metabolite level, Control line [fold change] | Metabolite level, AroG* + FLS line [fold change]
1 | COc1cc(-c2[o+]c3cc(O)cc(O)c3cc2O[C@@H]2O[C@H](COC(C)=O)[C@@H](O)[C@H](O)[C@H]2O)cc(OC)c1O [Malvidin-3-acet-glu, malvidin-3-acetyl-glucoside] | 4.75±0.58 | 0.89±0.12 | 7.06±0.85
2 | COc1cc(-c2[o+]c3cc(O)cc(O)c3cc2O[C@@H]2O[C@H](CO)[C@@H](O)[C@H](O)[C@H]2O)cc(OC)c1O [Malvidin-3-glu, malvidin-3-glucoside] | 6.82±0.48 | 1.83±0.36 | 9.63±0.54
3 | COc1cc(-c2[o+]c3cc(O)cc(O)c3cc2O[C@@H]2O[C@H](CO)[C@@H](O)[C@H](O)[C@H]2O)ccc1O [Peonidin-3-glu, peonidin-3-glucoside] | 1.68±0.12 | 1.3±0.11 | 2.31 ±0.17
4 | Oc1cc(O)c2c(c1)O[C@H](c1ccc(O)c(O)c1)[C@H](O)[C@H]2c1c(O)cc(O)c2c1O[C@H](c1ccc(O)c(O)c1)[C@H](O)C2 [Procyanidin B2, procyanidin B2] | 1.37±0.24 | 0.9±0.07 | 2.05±0.44
5 | Oc1cc(O)c2c(c1)O[C@H](c1ccc(O)c(O)c1)[C@H](O)[C@H]2c1c(O)cc(O)c2c1O[C@H](c1ccc(O)c(O)c1)[C@@H](O)C2 [Procyanidin B 1, procyanidin B1] | 0.97±0.04 | 1.28±0.14 | 1.4±0.31
6 | O=c1c(O[C@@H]2O[C@H](CO)[C@@H](O)[C@H](O)[C@H]2O)c(-c2ccc(O)c(O)c2)oc2cc(O)cc(O)c12 [Quercetin-3-glu, quercetin-3-glucoside] | 1.16±0.1 | 0.86±0.05 | 2.87±0.26
7 | N[C@@H](Cc1c[nH]c2ccccc12)C(=O)O [Trp, Tryptophan] | 3.02±0.05 | 0.81±0.12 | 6.68±0.87
8 | malvidin-3-coumaroyl-glucoside [Malvidin-3-coum-glu] | 6.6±0.76 | 1.07±0.16 | 11.55±1.84
